Each structure is given as a SMILES string. The list shows only some results of the screen, not a fair sample: it gathers tests that were run many times, whatever their T/C, doses with no T/C, and many T/C values between a quarter and a half above the control. Further doses and runs are listed elsewhere. T/C gives the treated animals as a percentage of the vehicle group. Some entries give survivors of the animals treated and no T/C: the source files T/C as zero there, which appears to mark a toxic dose or a test without result, not a measured value. Some doses without a T/C left all or most animals alive at the check, yet need not have been tolerated: the source hardly ever lists a survival T/C far under the control, and the zero likely stands for such cases as well. Survivors were counted at the toxicity check, usually on the fifth day, unless a day is given; later deaths do not show. Schedule codes are those of the source, taken here to give the interval after Q, in days (D) or hours (H), and the number of doses after X. Some schedule codes hold Z or #, which are not explained here. For survival time, this PubChem deposit counts one and a half times the control or more as active, and values a quarter to a half above the control carry no call in these data; other NCI protocols may use other cut-offs. Some entries were tested several times; the results are listed from low to high. Some T/C values are followed by the survivors on the day toxicity was checked, most often the fifth; without a count, all were alive then.

This assay relates to CD2F1 mice, L1210 leukemia ip, survival T/C. In words: NCI In Vivo Anticancer Drug Screen. Data for tumor model L1210 Leukemia (intraperitoneal) in CD2F1 (CDF1) mice. To be noted: higher T/C = longer survival. In a few lines: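 Vehicle-treated tumor-bearing mice served as controls (C) for compound-treated mice (T). Reported figure is T divided by C.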
Setting [1] is: T/C endpoint: mean survival time, dose: 100.0 mg/kg/injection, schedule: Q01DX009 (ip), vehicle: saline.
[2] abbreviates: T/C endpoint: mean survival time, dose: 200.0 mg/kg/injection, schedule: Q01DX001 (ip), vehicle: saline.
[3] abbreviates: T/C endpoint: mean survival time, dose: 400.0 mg/kg/injection, schedule: Q01DX001 (ip), vehicle: saline.

With `O=C1C=C(N2CC2)C(=O)C=C1N1CC1`, the T/C is 135 % of control (T/C endpoint: mean survival time, dose: 0.12 mg/kg/injection, schedule: Q01DX Z (ip), vehicle: saline); 130 and 135 % of control (T/C endpoint: mean survival time, dose: 0.25 mg/kg/injection, schedule: Q01DX Z (ip), vehicle: saline); 135 and 138 % of control (T/C endpoint: mean survival time, dose: 0.5 mg/kg/injection, schedule: Q01DX Z (ip), vehicle: saline). In addition, the survivor count is, setting by setting: (T/C endpoint: mean survival time, dose: 1.0 mg/kg/injection, schedule: Q01DX Z (ip), vehicle: saline) 6 of 6; (T/C endpoint: mean survival time, dose: 2.0 mg/kg/injection, schedule: Q01DX Z (ip), vehicle: saline) 4 of 6.
`COc1ccc(CCN2C(=O)C=CC2=O)cc1OC`: the survivor count by setting is: (T/C endpoint: mean survival time, dose: 20.0 mg/kg/injection, schedule: Q01DX009 (ip), vehicle: saline) 1 of 6; (T/C endpoint: mean survival time, dose: 40.0 mg/kg/injection, schedule: Q01DX001 (ip), vehicle: saline) 0 of 6; (T/C endpoint: mean survival time, dose: 80.0 mg/kg/injection, schedule: Q01DX001 (ip), vehicle: saline) 0 of 6.
`CC1CN(Cc2ccccc2)C1`: the survivor count is, setting by setting: (T/C endpoint: mean survival time, dose: 100.0 mg/kg/injection, schedule: Q01DX001 (ip), vehicle: acetone) 0 of 6; (T/C endpoint: mean survival time, dose: 200.0 mg/kg/injection, schedule: Q01DX001 (ip), vehicle: acetone) 0 of 6; (T/C endpoint: mean survival time, dose: 400.0 mg/kg/injection, schedule: Q01DX001 (ip), vehicle: acetone) 0 of 6.
Turning to `NCCc1cc(O)c(O)c(O)c1`, the T/C under setting [1] was 127 % of control and the T/C (T/C endpoint: mean survival time, dose: 400.0 mg/kg/injection, schedule: Q01DX009 (ip), vehicle: saline) is 133 % of control.
Take `COc1ccc(C2=NCCc3cc(OC)c(OC)cc32)cc1OC`: the survivor count (T/C endpoint: mean survival time, dose: 50.0 mg/kg/injection, schedule: Q01DX009 (ip), vehicle: other) is 6 of 6; the survivor count (T/C endpoint: mean survival time, dose: 100.0 mg/kg/injection, schedule: Q01DX009 (ip), vehicle: other) is 6 of 6; the survivor count (T/C endpoint: mean survival time, dose: 200.0 mg/kg/injection, schedule: Q01DX009 (ip), vehicle: other) is recorded as 1 of 6.
As to `C[n+]1ccc(Nc2ccc(NC(=O)c3ccc(Nc4cc[n+](C)c5ccc(N)cc45)cc3N)cc2)cc1`, where the note is “T/C endpoint: mean survival time, dose: 1.0 mg/kg/injection, schedule: Q01DX009 (ip), vehicle: water”, the T/C was 130 % of control. In addition, the survivor count runs as follows: (T/C endpoint: mean survival time, dose: 8.0 mg/kg/injection, schedule: Q01DX009 (ip), vehicle: water) 6 of 10; (T/C endpoint: mean survival time, dose: 16.0 mg/kg/injection, schedule: Q01DX009 (ip), vehicle: water) 2 of 10; (T/C endpoint: mean survival time, dose: 32.0 mg/kg/injection, schedule: Q01DX009 (ip), vehicle: water) 0 of 10.
Regarding `N#CC(=N)N1CCN(C(=N)C#N)CC1`, the survivor count was 0 of 3 (T/C endpoint: mean survival time, dose: 100.0 mg/kg/injection, schedule: Q04DX002 (ip), vehicle: saline with Tween-80); 0 of 6 under setting [2]; 0 of 6 under setting [3].
Regarding `N=c1c2c(C(N)=O)cn(C3OC(CO)C(O)C3O)c2ncn1N` (stereo not drawn), the T/C (T/C endpoint: mean survival time, dose: 33.3 mg/kg/injection, schedule: Q01DX005 (ip), vehicle: water) is 138 % of control; the T/C (T/C endpoint: mean survival time, dose: 50.0 mg/kg/injection, schedule: Q01DX005 (ip), vehicle: water) is 128 and 142 % of control; the T/C (T/C endpoint: mean survival time, dose: 75.0 mg/kg/injection, schedule: Q01DX005 (ip), vehicle: water) is 126 % of control. Also, where the note is “T/C endpoint: mean survival time, dose: 200.0 mg/kg/injection, schedule: Q01DX005 (ip), vehicle: water”, the survivor count was 0 of 6.
Turning to `Nc1ncnc2c1c1c(=O)[nH]c(=O)[nH]c1n2C1OC(CO)C(O)C1O` (stereo not drawn), the T/C (T/C endpoint: median survival time, dose: 200.0 mg/kg/injection, schedule: Q01DX009 (ip), vehicle: distilled water + Tween-80) is 127 [5 of 6 alive] and 130 % of control. Also, the survivor count (T/C endpoint: median survival time, dose: 400.0 mg/kg/injection, schedule: Q01DX009 (ip), vehicle: distilled water + Tween-80) is on record as 1 of 6.
Regarding `Nc1ncnc2c1nnn2C1OC(CO)C(O)C1O` (stereo not drawn), where the note is “T/C endpoint: mean survival time, dose: 42.0 mg/kg/injection, schedule: Q01DX009 (ip), vehicle: Klucel (hydroxypropylcellulose) (HPC)”, the T/C was 126 % of control.
`CON(C)N=Nc1ccc(C(N)=O)cc1`: the T/C (T/C endpoint: mean survival time, dose: 300.0 mg/kg/injection, schedule: Q01DX009 (ip), vehicle: Klucel (hydroxypropylcellulose) (HPC)) was 130 % of control.
Turning to `CCCCC(c1ccccc1)P(=O)(OCC)OCC` (stereo not drawn), the survivor count is, setting by setting: (T/C endpoint: mean survival time, dose: 200.0 mg/kg/injection, schedule: Q01DX009 (ip), vehicle: saline with Tween-80) 3 of 6; (T/C endpoint: mean survival time, dose: 400.0 mg/kg/injection, schedule: Q01DX009 (ip), vehicle: saline with Tween-80) 0 of 6.
In the case of `COc1ccc(Nc2nc(N)nc3c2ncn3C2OC(CO)C(O)C2O)cc1` (stereo not drawn), the survivor count (T/C endpoint: mean survival time, dose: 200.0 mg/kg/injection, schedule: Q01DX005 (ip), vehicle: distilled water + Tween-80) is given as 0 of 6.
On to `O=C(O)c1ccc(P(=O)(O)O)cc1[N+](=O)[O-]`, for which the survivor count under setting [1] was 6 of 6.
With `CN(C)C=NC1=NN(C)c2ncnc3c2c1cn3C1OC(CO)C(O)C1O` (stereo not drawn), the T/C runs as follows: (T/C endpoint: mean survival time, dose: 600.0 mg/kg/injection, schedule: Q01DX009 (ip), vehicle: other) 126 % of control; (T/C endpoint: mean survival time, dose: 900.0 mg/kg/injection, schedule: Q01DX009 (ip), vehicle: other) 126 % of control.
Take `CCc1ccc2c(c1)N(CCCN(CCCl)CCCl)c1ccccc1S2`: the survivor count runs as follows: (T/C endpoint: mean survival time, dose: 90.0 mg/kg/injection, schedule: Q01DX001 (ip), vehicle: saline with Tween-80) 3 of 6; (T/C endpoint: mean survival time, dose: 135.0 mg/kg/injection, schedule: Q01DX001 (ip), vehicle: saline with Tween-80) 2 of 6.
Turning to `CC(CCOP(=O)(N(CCCl)CCCl)N1CC1)OCc1ccccc1` (stereo not drawn), the T/C (T/C endpoint: mean survival time, dose: 25.0 mg/kg/injection, schedule: Q01DX001 (ip), vehicle: other) is 131 % of control; the T/C (T/C endpoint: mean survival time, dose: 50.0 mg/kg/injection, schedule: Q01DX001 (ip), vehicle: other) was 125 % of control; the T/C (T/C endpoint: mean survival time, dose: 75.0 mg/kg/injection, schedule: Q01DX001 (ip), vehicle: other) was 135 % of control. The survivor count runs as follows: (T/C endpoint: mean survival time, dose: 100.0 mg/kg/injection, schedule: Q01DX001 (ip), vehicle: other) 6 of 6; (T/C endpoint: mean survival time, dose: 200.0 mg/kg/injection, schedule: Q01DX001 (ip), vehicle: other) 6 of 6; (T/C endpoint: mean survival time, dose: 400.0 mg/kg/injection, schedule: Q01DX001 (ip), vehicle: other) 5 of 6.
For the compound `CC1(C)N=C(N)N=C(N)N1c1ccc(CCCCc2ccc(Cl)c(S(=O)(=O)F)c2)c(Cl)c1`, the survivor count is, setting by setting: (T/C endpoint: mean survival time, dose: 200.0 mg/kg/injection, schedule: Q04DX003 (ip), vehicle: saline sonified) 0 of 6; (T/C endpoint: mean survival time, dose: 400.0 mg/kg/injection, schedule: Q04DX003 (ip), vehicle: saline sonified) 0 of 6.
Turning to `Clc1ccc(NC2=NCCO2)cc1`, the survivor count is reported as 6 of 6 (T/C endpoint: mean survival time, dose: 200.0 mg/kg/injection, schedule: Q04DX003 (ip), vehicle: Klucel (hydroxypropylcellulose) (HPC)) and 2 of 6 (T/C endpoint: mean survival time, dose: 400.0 mg/kg/injection, schedule: Q04DX003 (ip), vehicle: Klucel (hydroxypropylcellulose) (HPC)).
With `CCCC[P+](CCCC)(CCCC)CC(=O)C[P+](CCCC)(CCCC)CCCC`, the survivor count is reported as 0 of 6 (T/C endpoint: mean survival time, dose: 100.0 mg/kg/injection, schedule: Q01DX001 (ip), vehicle: saline); 0 of 6 under setting [2]; 0 of 6 under setting [3].
`COc1cccc2c1C(=O)c1c(O)c3c(c(O)c1C2=O)C[C@](O)(C(=O)CO)CC3OC1CC(N)C(OC2CCCCO2)C(C)O1` (stereo partly drawn): for the setting “T/C endpoint: median survival time, dose: 6.0 mg/kg/injection, schedule: Q01DX009 (ip), vehicle: water”, the T/C was 126 and 134 % of control. For the same compound, the survivor count (T/C endpoint: median survival time, dose: 12.0 mg/kg/injection, schedule: Q01DX009 (ip), vehicle: water) was 5 of 6; the survivor count (T/C endpoint: median survival time, dose: 24.0 mg/kg/injection, schedule: Q01DX009 (ip), vehicle: water) is 5 of 6; the survivor count (T/C endpoint: median survival time, dose: 25.0 mg/kg/injection, schedule: Q01DX009 (ip), vehicle: water) is 2 of 6; the survivor count (T/C endpoint: median survival time, dose: 50.0 mg/kg/injection, schedule: Q01DX009 (ip), vehicle: water) is reported as 0 of 6; the survivor count (T/C endpoint: median survival time, dose: 100.0 mg/kg/injection, schedule: Q01DX009 (ip), vehicle: water) is on record as 0 of 6.
